No constants are given. Whether binding was seen depends on the method and setting. In cells and extracts the contact can be indirect. Some entries that bind do so weakly or less than the wild type. Sequences can lack the tags named with a protein.
T1: Sir2-myc (Drosophila) (UniProt Q9VK34)
T1 sequence: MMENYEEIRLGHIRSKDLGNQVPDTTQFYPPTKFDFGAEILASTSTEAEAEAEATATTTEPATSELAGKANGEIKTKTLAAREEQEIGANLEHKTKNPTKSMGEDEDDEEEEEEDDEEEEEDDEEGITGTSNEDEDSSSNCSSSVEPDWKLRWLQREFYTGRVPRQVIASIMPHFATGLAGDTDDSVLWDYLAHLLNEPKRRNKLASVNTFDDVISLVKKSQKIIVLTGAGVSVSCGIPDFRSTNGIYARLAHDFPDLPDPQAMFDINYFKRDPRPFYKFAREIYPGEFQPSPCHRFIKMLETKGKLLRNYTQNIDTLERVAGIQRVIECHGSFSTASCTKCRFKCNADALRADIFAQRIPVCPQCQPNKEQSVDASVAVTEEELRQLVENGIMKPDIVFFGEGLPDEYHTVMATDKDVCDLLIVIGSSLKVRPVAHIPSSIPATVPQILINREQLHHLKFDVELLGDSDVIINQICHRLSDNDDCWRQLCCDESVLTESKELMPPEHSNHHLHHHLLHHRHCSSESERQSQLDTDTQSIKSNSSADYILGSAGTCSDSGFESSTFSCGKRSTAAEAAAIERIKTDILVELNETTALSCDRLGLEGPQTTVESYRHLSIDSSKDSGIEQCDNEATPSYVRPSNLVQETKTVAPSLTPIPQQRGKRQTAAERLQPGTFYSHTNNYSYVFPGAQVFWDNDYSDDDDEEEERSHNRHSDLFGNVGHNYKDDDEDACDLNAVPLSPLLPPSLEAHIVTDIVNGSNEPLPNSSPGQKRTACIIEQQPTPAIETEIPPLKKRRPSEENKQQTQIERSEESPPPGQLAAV

T2: GST-Atg8a N-terminal half (amino acid residues 1-71) (Drosophila) (UniProt Q9W2S2)
T2 sequence: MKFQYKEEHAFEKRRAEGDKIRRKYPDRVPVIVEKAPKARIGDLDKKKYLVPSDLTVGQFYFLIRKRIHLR


Columns and labels:
[1] = molecular target: T1, Sir2-myc (Drosophila); experiment: co-IP
[2] = molecular target: T2, GST-Atg8a N-terminal half (amino acid residues 1-71) (Drosophila); experiment: pull-down
[3] = molecular target: GST-tagged Atg8a-LDS mutant (Y49A) (Drosophila) (UniProt Q9W2S2); experiment: pull-down
[4] = molecular target: GST-tagged Atg8a-WT (Drosophila) (UniProt Q9W2S2); experiment: pull-down

| Molecule | binding [1] | binding [2] | binding [3] | binding [4] |
| --- | --- | --- | --- | --- |
| mCherry-Atg8a (from UniProt Q9W2S2 1-121) | binds |  |  |  |
| radiolabelled myc-YL-1 WT (protein, UniProt Q9VKM6 1-351, 35S-methionine-labelled) MAASRSRRNNAGNKIAHLLNEEEEDDFYKTSYGGFQEDEEDKEYEQKDEEEDVVDSDFSIDENDEPVSDQEEAPEKKRKRGVVNTKAYKETKPAVKKETKATPALHKKRPGGGVTKRRPRPRFTVLDSGRKSIRTSTAIKTQATKIRLKELDDARKRKKKKVRVEDYMPTQEELLEEAKITEEENTKSLEKFQKMELEKKKSRPTKRTFSGPTIRYHSLTMPAMRKPTRGANPAVDSKDLAGKCERTFVTIENDFNDKVFQSLFRHKAPPKASNGICPITRLPARYFDPITQQPYYSIQAFKILREAYYMQLEQQGGGSEQPELAKWLEWRKLVKENRLKASAAASKNGDN |  | binds | binds | binds |
| 6×His-Sir2 (enzyme, UniProt Q9VK34 1-823) MMENYEEIRLGHIRSKDLGNQVPDTTQFYPPTKFDFGAEILASTSTEAEAEAEATATTTEPATSELAGKANGEIKTKTLAAREEQEIGANLEHKTKNPTKSMGEDEDDEEEEEEDDEEEEEDDEEGITGTSNEDEDSSSNCSSSVEPDWKLRWLQREFYTGRVPRQVIASIMPHFATGLAGDTDDSVLWDYLAHLLNEPKRRNKLASVNTFDDVISLVKKSQKIIVLTGAGVSVSCGIPDFRSTNGIYARLAHDFPDLPDPQAMFDINYFKRDPRPFYKFAREIYPGEFQPSPCHRFIKMLETKGKLLRNYTQNIDTLERVAGIQRVIECHGSFSTASCTKCRFKCNADALRADIFAQRIPVCPQCQPNKEQSVDASVAVTEEELRQLVENGIMKPDIVFFGEGLPDEYHTVMATDKDVCDLLIVIGSSLKVRPVAHIPSSIPATVPQILINREQLHHLKFDVELLGDSDVIINQICHRLSDNDDCWRQLCCDESVLTESKELMPPEHSNHHLHHHLLHHRHCSSESERQSQLDTDTQSIKSNSSADYILGSAGTCSDSGFESSTFSCGKRSTAAEAAAIERIKTDILVELNETTALSCDRLGLEGPQTTVESYRHLSIDSSKDSGIEQCDNEATPSYVRPSNLVQETKTVAPSLTPIPQQRGKRQTAAERLQPGTFYSHTNNYSYVFPGAQVFWDNDYSDDDDEEEERSHNRHSDLFGNVGHNYKDDDEDACDLNAVPLSPLLPPSLEAHIVTDIVNGSNEPLPNSSPGQKRTACIIEQQPTPAIETEIPPLKKRRPSEENKQQTQIERSEESPPPGQLAAV |  |  |  | binds |

Reference: publication doi:10.1101/611731
